This data set relates to NIH-3T3 cells. Nature of the data set: Live cell confocal imaging. It counts as cell-based, mouse. As to conditions: NIH-3T3, 2.5 μM, imaged for 6 h with 2 h intervals. The procedure: NIH-3T3 or HeLa cells were seeded in an 8-well coverslip chamber (Lab-Tek) at a density of 100,000 cells per well and grown at 37 °C under 5% of CO2, 24 h later, cells were treated with 2.5 μM KRSs probes for 6 h. The medium was replaced with DMEM without phenol red, and Hoechst was added to a final concentration of 5 μg/mL. Live imaging of cells using a Zeiss LSM 710 Axio Observer.Z1 with a 63/24 Oil DIC M27 lens, in Cy3 and DAPI channels, was performed over 24 h; pictures were taken every 20–25 min. The Z-stack analysis was performed using 3–5 different depths focusing on the cell nucleus; each slice was 1–1.5 μm. Image processing was performed using NIS-Elements image acquisition software, quantifying the 63× images of several experiments and calculating the average fluorescence intensity. Statistics and standard deviation were calculated by using Microsoft Excel.

On to “Ac-Cys-Phe-Phe-Lys-(TMR-X)-AOMK-QSY7 [KRS-D1(qAc)]”, for which the “Cellular localization of probe signal” value is given as “more scattered in the cell”. In the case of “NLS-Cys-Phe-Phe-Lys-(TMR-X)-AOMK-QSY7 [KRS-E1(qNLS)]”, the “Cellular localization of probe signal” value is listed as “mostly localized to the peri-nuclear region”. “TAT-Cys-Phe-Phe-Lys-(TMR-X)-AOMK-QSY7 [KRS-B1(qTAT)]”: the “Cellular localization of probe signal” value is reported as “mostly localized to the peri-nuclear region”.

Source of the values: PMC11877631, “Novel Nucleus-Oriented Quenched Activity-Based Probes Link Cathepsin Nuclear Localization with Mitosis” (ACS Sensors, 2025).
